Results deposited as PubChem BioAssay AID1259308 (NCATS, 2017).
Here is a random part of about 59,000 deposited reagents. Over the whole deposit, about 1,510 (2.6%) were called active. 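Calls use total luciferase alone and ignore viability, so some active siRNAs may act by altering cell number.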 Reagents against one gene are numbered here.

Purpose: 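Knock-downs that increase output of a recombinant reporter protein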 (primary screen)
Cell system: human HEK293 embryonic kidney cells stably expressing firefly luciferase (HEK-CMV-Luc2-Hygro)
Knock-down reagent: single siRNA against human genes, 0.8 pmol siRNA per well
Time to read-out: 72 h
Detection: 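Reporter luminescence and viable-cell signal on separate replicate plates, given as percent of non-targeting control and median/MAD z-scores, plus per-cell luciferase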
Direction: total luciferase, z-score and total luciferase, % of control: higher = more reporter protein produced; luciferase per cell, z-score: higher = more reporter output per viable cell; viable cells, % of control: higher = more viable cells
Rule for the call: 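Active when the median/MAD z-score for overall luciferase is greater than 3; a gene was taken forward for validation with new siRNAs if at least two of its three siRNAs passed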
Meaning of the calls: active = raised luciferase; inactive = no rise

Gene | reagent no. | total luciferase, z-score | total luciferase, % of control | luciferase per cell, z-score | viable cells, % of control | outcome
CSRNP1 | 1 | -1.95 | 43.1 | -2.04 | 82.3 | inactive
CSRNP1 | 2 | -0.691 | 68.1 | -0.886 | 96.2 | inactive
CSRNP1 | 3 | -0.468 | 72.6 | 0.787 | 65.9 | inactive
PDCD6IP | 1 | 0.162 | 85.1 | -0.253 | 102 | inactive
PDCD6IP | 2 | -0.222 | 77.5 | -0.353 | 95 | inactive
PDCD6IP | 3 | -0.279 | 76.3 | -0.793 | 105 | inactive
ECM1 | 1 | 1.62 | 114 | 1.05 | 96.6 | inactive
ECM1 | 2 | 0.647 | 94.8 | 1.37 | 73.9 | inactive
ECM1 | 3 | -0.0278 | 81.3 | -0.423 | 102 | inactive
CATSPERE | 1 | -0.184 | 78.2 | -0.346 | 95.7 | inactive
CATSPERE | 2 | -0.00287 | 81.8 | -0.265 | 98.1 | inactive
CATSPERE | 3 | -0.664 | 68.7 | -0.123 | 79.3 | inactive
RCN2 | 1 | -0.548 | 71 | -0.929 | 101 | inactive
RCN2 | 2 | -0.263 | 76.6 | 0.598 | 73.2 | inactive
RCN2 | 3 | 0.126 | 84.4 | -0.435 | 106 | inactive

6 entries from above, reformatted.
| Gene | reagent no. | total luciferase, z-score | total luciferase, % of control | luciferase per cell, z-score | viable cells, % of control | outcome |
| --- | --- | --- | --- | --- | --- | --- |
| PDCD6IP | 3 | -0.279 | 76.3 | -0.793 | 105 | inactive |
| ECM1 | 1 | 1.62 | 114 | 1.05 | 96.6 | inactive |
| ECM1 | 2 | 0.647 | 94.8 | 1.37 | 73.9 | inactive |
| ECM1 | 3 | -0.0278 | 81.3 | -0.423 | 102 | inactive |
| CATSPERE | 1 | -0.184 | 78.2 | -0.346 | 95.7 | inactive |
| CATSPERE | 2 | -0.00287 | 81.8 | -0.265 | 98.1 | inactive |

More results follow.
Gene | reagent no. | total luciferase, z-score | total luciferase, % of control | luciferase per cell, z-score | viable cells, % of control | outcome
SAMD7 | 1 | -0.419 | 73.5 | -0.221 | 87.1 | inactive
SAMD7 | 2 | 1.18 | 105 | 0.597 | 101 | inactive
SAMD7 | 3 | -0.872 | 64.5 | -1.01 | 94 | inactive
INO80E | 1 | 0.201 | 85.9 | -0.214 | 102 | inactive
INO80E | 2 | 0.137 | 84.6 | 0.261 | 88.3 | inactive
INO80E | 3 | -0.0356 | 81.2 | 0.0844 | 88.7 | inactive
SMARCA4 | 1 | 1.58 | 113 | 0.808 | 102 | inactive
SMARCA4 | 2 | -0.177 | 78.4 | -0.263 | 93.8 | inactive
SMARCA4 | 3 | -0.174 | 78.4 | 0.195 | 83.3 | inactive
LZTS3 | 1 | -0.808 | 65.8 | -0.296 | 79.5 | inactive
LZTS3 | 2 | 0.823 | 98.2 | 0.444 | 97.7 | inactive
LZTS3 | 3 | -0.875 | 64.5 | -1.29 | 101 | inactive
PPIL3 | 1 | 3.16 | 145 | 2.17 | 91.2 | active
PPIL3 | 2 | 0.416 | 90.2 | 0.415 | 90.3 | inactive
PPIL3 | 3 | 0.734 | 96.5 | 0.464 | 95.4 | inactive
NDUFB5 | 1 | 0.0187 | 82.3 | -0.672 | 110 | inactive
NDUFB5 | 2 | 0.567 | 93.2 | 1.14 | 77.2 | inactive
NDUFB5 | 3 | 0.591 | 93.6 | 0.602 | 89.3 | inactive
THOC1 | 1 | -0.474 | 72.5 | -0.467 | 91.6 | inactive
THOC1 | 2 | -1.18 | 58.3 | -1.64 | 100 | inactive
THOC1 | 3 | -0.677 | 68.4 | -1.4 | 110 | inactive
SULT1A2 | 1 | 1.27 | 107 | 0.655 | 101 | inactive
SULT1A2 | 2 | 1.37 | 109 | 0.775 | 99.5 | inactive
SULT1A2 | 3 | 1.86 | 119 | 0.661 | 112 | inactive
